Data: article PMC9556433

Target: Artemisia calmodulin (ArtCaM) (Artemisia (A. sieversiana and A. lavandulifolia))
Experiment: co-IP; Co-IP between ArtCaM and DCs; told only in the discussion, no methods, detection or conditions given; only the target purified

B1: pattern recognition receptors adaptor protein (WDFY1) (protein, UniProt Q8IWB7 1-410)
chain: MAAEIHSRPQSSRPVLLSKIEGHQDAVTAALLIPKEDGVITASEDRTIRVWLKRDSGQYWPSIYHTMASPCSAMAYHHDSRRIFVGQDNGAVMEFHVSEDFNKMNFIKTYPAHQNRVSAIIFSLATEWVISTGHDKCVSWMCTRSGNMLGRHFFTSWASCLQYDFDTQYAFVGDYSGQITLLKLEQNTCSVITTLKGHEGSVACLWWDPIQRLLFSGASDNSIIMWDIGGRKGRTLLLQGHHDKVQSLCYLQLTRQLVSCSSDGGIAVWNMDVSREEAPQWLESDSCQKCEQPFFWNIKQMWDTKTLGLRQHHCRKCGQAVCGKCSSKRSSYPVMGFEFQVRVCDSCYDSIKDEDRTSLATFHEGKHNISHMSMDIARGLMVTCGTDRIVKIWDMTPVVGCSLATGFSPH
- binding: binds

Results are given in words; binding and its absence hold for the method and conditions named. Binding seen in cells or lysates may run through a third protein. Binding calls can cover weak binding; strength is not graded here.
